Record: PubChem BioAssay AID504784 (Drosophila RNAi Screening Center, 2011)

- Purpose: 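Search for regulators of lipid droplet storage in oleate-fed fly cells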 (primary screen)
- Cells: Drosophila Kc167 embryonic cells
- Knock-down reagent: long dsRNA against Drosophila genes, about 250 ng dsRNA per well
- Time to read-out: 4 days
- Conditions: cells fed 400 µM oleic acid bound to BSA
- Measured: 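Microscope images give a droplet-to-nucleus area ratio, taken as log and converted to a screen-wide B-score; higher values mean greater lipid storage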
- Scale: droplet/nuclear area B-score: higher = more stored lipid (overstorage)
The deposit covers about 17,000 reagents; below is a random part of those that have a named target and a result. 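Each column is one replicate's B-score; the combined score over replicates was not deposited, so single values may mislead.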 Reagents against one gene are numbered here.

{"gene knocked down": "CG30088 (GeneID 246447)", "reagent no.": 1, "droplet/nuclear area B-score, replicate 1": -0.184, "droplet/nuclear area B-score, replicate 2": 0.241}
{"gene knocked down": "anne (GeneID 317815)", "reagent no.": 1, "droplet/nuclear area B-score, replicate 1": 1.48, "droplet/nuclear area B-score, replicate 2": 2.03}
{"gene knocked down": "Tbce (GeneID 35532)", "reagent no.": 1, "droplet/nuclear area B-score, replicate 1": 0.735, "droplet/nuclear area B-score, replicate 2": -0.44}
{"gene knocked down": "CG2767 (GeneID 40946)", "reagent no.": 1, "droplet/nuclear area B-score, replicate 1": -1.63, "droplet/nuclear area B-score, replicate 2": 0.746}
{"gene knocked down": "lqfR (GeneID 42632)", "reagent no.": 1, "droplet/nuclear area B-score, replicate 1": 0.506, "droplet/nuclear area B-score, replicate 2": 1.81}
{"gene knocked down": "lqfR (GeneID 42632)", "reagent no.": 2, "droplet/nuclear area B-score, replicate 1": 0.269, "droplet/nuclear area B-score, replicate 2": -0.37}
{"gene knocked down": "CG2794 (GeneID 33233)", "reagent no.": 1, "droplet/nuclear area B-score, replicate 1": -0.0108, "droplet/nuclear area B-score, replicate 2": -0.844}
{"gene knocked down": "zfh2 (GeneID 43795)", "reagent no.": 1, "droplet/nuclear area B-score, replicate 1": -4.41, "droplet/nuclear area B-score, replicate 2": 0.668}
{"gene knocked down": "CG17637 (GeneID 40275)", "reagent no.": 1, "droplet/nuclear area B-score, replicate 1": 0.569, "droplet/nuclear area B-score, replicate 2": 0.673}
{"gene knocked down": "CG12134 (GeneID 36038)", "reagent no.": 1, "droplet/nuclear area B-score, replicate 1": -1.89, "droplet/nuclear area B-score, replicate 2": 0.308}
{"gene knocked down": "CG18404 (GeneID 43603)", "reagent no.": 1, "droplet/nuclear area B-score, replicate 1": 0.364}
{"gene knocked down": "Utx (GeneID 34377)", "reagent no.": 1, "droplet/nuclear area B-score, replicate 1": -0.334, "droplet/nuclear area B-score, replicate 2": -0.292}
{"gene knocked down": "CG3065 (GeneID 37818)", "reagent no.": 1, "droplet/nuclear area B-score, replicate 1": -1.74, "droplet/nuclear area B-score, replicate 2": -2.75}
{"gene knocked down": "CG4066 (GeneID 41493)", "reagent no.": 1, "droplet/nuclear area B-score, replicate 1": 0.675, "droplet/nuclear area B-score, replicate 2": 0.0118}
{"gene knocked down": "Ilk (GeneID 53573)", "reagent no.": 1, "droplet/nuclear area B-score, replicate 1": -0.0169, "droplet/nuclear area B-score, replicate 2": 2.47}
{"gene knocked down": "CG1273 (GeneID 38522)", "reagent no.": 1, "droplet/nuclear area B-score, replicate 1": 0.517, "droplet/nuclear area B-score, replicate 2": 5.04}
{"gene knocked down": "CG17193 (GeneID 50044)", "reagent no.": 1, "droplet/nuclear area B-score, replicate 2": -0.559}
{"gene knocked down": "Pgant1 (GeneID 36717)", "reagent no.": 1, "droplet/nuclear area B-score, replicate 1": 0.0564, "droplet/nuclear area B-score, replicate 2": 1.75}
{"gene knocked down": "Qtzl (GeneID 318990)", "reagent no.": 1, "droplet/nuclear area B-score, replicate 1": 1.54, "droplet/nuclear area B-score, replicate 2": 1.44}
{"gene knocked down": "I-t (GeneID 41414)", "reagent no.": 1, "droplet/nuclear area B-score, replicate 1": 0.225, "droplet/nuclear area B-score, replicate 2": 0.404}
{"gene knocked down": "Ate1 (GeneID 37288)", "reagent no.": 1, "droplet/nuclear area B-score, replicate 1": 1, "droplet/nuclear area B-score, replicate 2": 0.555}
{"gene knocked down": "l(3)72Dr (GeneID 39778)", "reagent no.": 1, "droplet/nuclear area B-score, replicate 1": -0.22, "droplet/nuclear area B-score, replicate 2": 0.244}
{"gene knocked down": "RhoGEF64C (GeneID 38578)", "reagent no.": 1, "droplet/nuclear area B-score, replicate 1": 1.29, "droplet/nuclear area B-score, replicate 2": 0.0722}
{"gene knocked down": "RhoGEF64C (GeneID 38578)", "reagent no.": 2, "droplet/nuclear area B-score, replicate 1": 2.39, "droplet/nuclear area B-score, replicate 2": 1.56}
{"gene knocked down": "CAH3 (GeneID 31804)", "reagent no.": 1, "droplet/nuclear area B-score, replicate 1": -0.305, "droplet/nuclear area B-score, replicate 2": -0.425}
{"gene knocked down": "CG31559 (GeneID 40749)", "reagent no.": 1, "droplet/nuclear area B-score, replicate 1": 1.78, "droplet/nuclear area B-score, replicate 2": 0.747}
{"gene knocked down": "CG31559 (GeneID 40749)", "reagent no.": 2, "droplet/nuclear area B-score, replicate 1": -0.512, "droplet/nuclear area B-score, replicate 2": 0.0937}
{"gene knocked down": "AP-1-2beta (GeneID 32987)", "reagent no.": 1, "droplet/nuclear area B-score, replicate 1": -0.0681, "droplet/nuclear area B-score, replicate 2": 0.34}
{"gene knocked down": "Or59a (GeneID 37711)", "reagent no.": 1, "droplet/nuclear area B-score, replicate 1": 1.22, "droplet/nuclear area B-score, replicate 2": -0.803}
{"gene knocked down": "Sfmbt (GeneID 34709)", "reagent no.": 1, "droplet/nuclear area B-score, replicate 1": 1.17, "droplet/nuclear area B-score, replicate 2": -0.16}
{"gene knocked down": "CG13449 (GeneID 39695)", "reagent no.": 1, "droplet/nuclear area B-score, replicate 1": -0.107, "droplet/nuclear area B-score, replicate 2": -0.845}
{"gene knocked down": "Cpr35B (GeneID 34846)", "reagent no.": 1, "droplet/nuclear area B-score, replicate 1": -1.73, "droplet/nuclear area B-score, replicate 2": -0.485, "droplet/nuclear area B-score, replicate 3": 6.94}
{"gene knocked down": "Cpr35B (GeneID 34846)", "reagent no.": 2, "droplet/nuclear area B-score, replicate 1": -0.278, "droplet/nuclear area B-score, replicate 2": -0.213}
{"gene knocked down": "CG33469 (GeneID 2768832)", "reagent no.": 1, "droplet/nuclear area B-score, replicate 1": 0.00241, "droplet/nuclear area B-score, replicate 2": 1.22}
{"gene knocked down": "CG13654 (GeneID 43028)", "reagent no.": 1, "droplet/nuclear area B-score, replicate 1": -1.15, "droplet/nuclear area B-score, replicate 2": -0.996}
{"gene knocked down": "CG2611 (GeneID 35324)", "reagent no.": 1, "droplet/nuclear area B-score, replicate 1": 0.319, "droplet/nuclear area B-score, replicate 2": -1.38}
{"gene knocked down": "CCT1 (GeneID 42649)", "reagent no.": 1, "droplet/nuclear area B-score, replicate 1": 0.0296, "droplet/nuclear area B-score, replicate 2": 0.245}
{"gene knocked down": "CG18469 (GeneID 36943)", "reagent no.": 1, "droplet/nuclear area B-score, replicate 1": -1.41, "droplet/nuclear area B-score, replicate 2": 0.0796}
{"gene knocked down": "Rab10 (GeneID 33025)", "reagent no.": 1, "droplet/nuclear area B-score, replicate 1": -1.94, "droplet/nuclear area B-score, replicate 2": -0.358}
{"gene knocked down": "CG1750 (GeneID 43699)", "reagent no.": 1, "droplet/nuclear area B-score, replicate 1": 0.644}
{"gene knocked down": "CG14495 (GeneID 37056)", "reagent no.": 1, "droplet/nuclear area B-score, replicate 1": -0.512, "droplet/nuclear area B-score, replicate 2": 0.0687}
{"gene knocked down": "cac (GeneID 32158)", "reagent no.": 1, "droplet/nuclear area B-score, replicate 1": -1.8, "droplet/nuclear area B-score, replicate 2": -2.69, "droplet/nuclear area B-score, replicate 3": -0.778}
{"gene knocked down": "cac (GeneID 32158)", "reagent no.": 2, "droplet/nuclear area B-score, replicate 1": 1.54, "droplet/nuclear area B-score, replicate 2": 1.21, "droplet/nuclear area B-score, replicate 3": 0.0457}
{"gene knocked down": "CG8944 (GeneID 32517)", "reagent no.": 1, "droplet/nuclear area B-score, replicate 1": 0.427, "droplet/nuclear area B-score, replicate 2": 0.262, "droplet/nuclear area B-score, replicate 3": -1.89}
{"gene knocked down": "CG8944 (GeneID 32517)", "reagent no.": 2, "droplet/nuclear area B-score, replicate 1": -0.0371, "droplet/nuclear area B-score, replicate 2": 0.171}
{"gene knocked down": "CG5888 (GeneID 34980)", "reagent no.": 1, "droplet/nuclear area B-score, replicate 1": -2.45, "droplet/nuclear area B-score, replicate 2": -0.108}
{"gene knocked down": "CG9890 (GeneID 37659)", "reagent no.": 1, "droplet/nuclear area B-score, replicate 1": 0.972, "droplet/nuclear area B-score, replicate 2": -0.0571}
{"gene knocked down": "CG18480 (GeneID 34920)", "reagent no.": 1, "droplet/nuclear area B-score, replicate 1": 0.498, "droplet/nuclear area B-score, replicate 2": 3.13}
{"gene knocked down": "CG14671 (GeneID 40671)", "reagent no.": 1, "droplet/nuclear area B-score, replicate 1": -0.3, "droplet/nuclear area B-score, replicate 2": -0.89}
{"gene knocked down": "CG43896 (GeneID 39360)", "reagent no.": 1, "droplet/nuclear area B-score, replicate 1": 0.0151, "droplet/nuclear area B-score, replicate 2": -0.00637}
{"gene knocked down": "dpr8 (GeneID 32387)", "reagent no.": 1, "droplet/nuclear area B-score, replicate 1": -1.22, "droplet/nuclear area B-score, replicate 2": -1.18}
{"gene knocked down": "dpr8 (GeneID 32387)", "reagent no.": 2, "droplet/nuclear area B-score, replicate 1": 2.28, "droplet/nuclear area B-score, replicate 2": 3.31}
{"gene knocked down": "dpr8 (GeneID 32387)", "reagent no.": 3, "droplet/nuclear area B-score, replicate 1": 0.555, "droplet/nuclear area B-score, replicate 2": 0.553}
{"gene knocked down": "dpr8 (GeneID 32387)", "reagent no.": 4, "droplet/nuclear area B-score, replicate 1": -0.0445, "droplet/nuclear area B-score, replicate 2": 0.0412}

Reprinted from the listing (4 entries):
{"gene knocked down": "Cpr35B (GeneID 34846)", "reagent no.": 1, "droplet/nuclear area B-score, replicate 1": -1.73, "droplet/nuclear area B-score, replicate 2": -0.485, "droplet/nuclear area B-score, replicate 3": 6.94}
{"gene knocked down": "Cpr35B (GeneID 34846)", "reagent no.": 2, "droplet/nuclear area B-score, replicate 1": -0.278, "droplet/nuclear area B-score, replicate 2": -0.213}
{"gene knocked down": "CG33469 (GeneID 2768832)", "reagent no.": 1, "droplet/nuclear area B-score, replicate 1": 0.00241, "droplet/nuclear area B-score, replicate 2": 1.22}
{"gene knocked down": "CG13654 (GeneID 43028)", "reagent no.": 1, "droplet/nuclear area B-score, replicate 1": -1.15, "droplet/nuclear area B-score, replicate 2": -0.996}
